From patent US20050058645A1
These are yes or no findings as the source states them, for the method shown.

Biological target: B-gal
Test: Western blot of lysates of transfected COS cells after SDS-PAGE, probed with mAb 1D9

- binding: no binding
B1: murine monoclonal antibody 1D9 (antibody, IgG1, V domains shown)
VH: EVKLVESGGGLVKPGGSLKLSCAASGFTFSGYGMSWVRQTPEKRLEWVATISGLGGYTYYPDSVKGRFTISRDNAKNTLYLQMSSLRSDDTAFYYCARRFYGDYVGAMDYWGQGTSVTVSS
VL: DILMTQAAFSNPVTLGTSASISCRSSKSLLHSNGITYLYWYLQKPGQSPQLLIYQMSNLASGVPDRFSCSGSGTDFTLSISRVEAEDVGFYYCAQNLELPFTFGSGTKLEIE
